The other results are listed elsewhere or left out.

Chains of the proteins cited; added tags and fusions are not shown. Lines headed by an entry give the natural chain unless they say otherwise; changes in a name come on top.
UniProt Q9NRR6: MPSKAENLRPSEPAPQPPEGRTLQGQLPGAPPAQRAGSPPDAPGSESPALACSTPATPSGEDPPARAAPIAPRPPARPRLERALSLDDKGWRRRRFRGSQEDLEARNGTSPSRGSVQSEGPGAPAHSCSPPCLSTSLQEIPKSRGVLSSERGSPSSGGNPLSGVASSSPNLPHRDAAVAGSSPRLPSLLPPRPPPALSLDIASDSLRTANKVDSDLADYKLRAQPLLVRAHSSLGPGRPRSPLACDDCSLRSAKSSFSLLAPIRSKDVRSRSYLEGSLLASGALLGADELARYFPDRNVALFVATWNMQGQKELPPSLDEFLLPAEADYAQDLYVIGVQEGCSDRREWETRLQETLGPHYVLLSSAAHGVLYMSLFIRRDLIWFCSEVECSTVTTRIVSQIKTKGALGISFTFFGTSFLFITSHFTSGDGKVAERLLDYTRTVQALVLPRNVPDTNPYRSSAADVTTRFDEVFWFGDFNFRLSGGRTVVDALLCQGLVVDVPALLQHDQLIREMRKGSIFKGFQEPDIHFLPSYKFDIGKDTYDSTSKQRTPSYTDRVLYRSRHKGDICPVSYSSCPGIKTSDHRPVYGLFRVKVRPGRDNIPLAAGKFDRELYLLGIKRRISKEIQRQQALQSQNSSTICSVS
UniProt Q9ULG1, whole entry, looked up: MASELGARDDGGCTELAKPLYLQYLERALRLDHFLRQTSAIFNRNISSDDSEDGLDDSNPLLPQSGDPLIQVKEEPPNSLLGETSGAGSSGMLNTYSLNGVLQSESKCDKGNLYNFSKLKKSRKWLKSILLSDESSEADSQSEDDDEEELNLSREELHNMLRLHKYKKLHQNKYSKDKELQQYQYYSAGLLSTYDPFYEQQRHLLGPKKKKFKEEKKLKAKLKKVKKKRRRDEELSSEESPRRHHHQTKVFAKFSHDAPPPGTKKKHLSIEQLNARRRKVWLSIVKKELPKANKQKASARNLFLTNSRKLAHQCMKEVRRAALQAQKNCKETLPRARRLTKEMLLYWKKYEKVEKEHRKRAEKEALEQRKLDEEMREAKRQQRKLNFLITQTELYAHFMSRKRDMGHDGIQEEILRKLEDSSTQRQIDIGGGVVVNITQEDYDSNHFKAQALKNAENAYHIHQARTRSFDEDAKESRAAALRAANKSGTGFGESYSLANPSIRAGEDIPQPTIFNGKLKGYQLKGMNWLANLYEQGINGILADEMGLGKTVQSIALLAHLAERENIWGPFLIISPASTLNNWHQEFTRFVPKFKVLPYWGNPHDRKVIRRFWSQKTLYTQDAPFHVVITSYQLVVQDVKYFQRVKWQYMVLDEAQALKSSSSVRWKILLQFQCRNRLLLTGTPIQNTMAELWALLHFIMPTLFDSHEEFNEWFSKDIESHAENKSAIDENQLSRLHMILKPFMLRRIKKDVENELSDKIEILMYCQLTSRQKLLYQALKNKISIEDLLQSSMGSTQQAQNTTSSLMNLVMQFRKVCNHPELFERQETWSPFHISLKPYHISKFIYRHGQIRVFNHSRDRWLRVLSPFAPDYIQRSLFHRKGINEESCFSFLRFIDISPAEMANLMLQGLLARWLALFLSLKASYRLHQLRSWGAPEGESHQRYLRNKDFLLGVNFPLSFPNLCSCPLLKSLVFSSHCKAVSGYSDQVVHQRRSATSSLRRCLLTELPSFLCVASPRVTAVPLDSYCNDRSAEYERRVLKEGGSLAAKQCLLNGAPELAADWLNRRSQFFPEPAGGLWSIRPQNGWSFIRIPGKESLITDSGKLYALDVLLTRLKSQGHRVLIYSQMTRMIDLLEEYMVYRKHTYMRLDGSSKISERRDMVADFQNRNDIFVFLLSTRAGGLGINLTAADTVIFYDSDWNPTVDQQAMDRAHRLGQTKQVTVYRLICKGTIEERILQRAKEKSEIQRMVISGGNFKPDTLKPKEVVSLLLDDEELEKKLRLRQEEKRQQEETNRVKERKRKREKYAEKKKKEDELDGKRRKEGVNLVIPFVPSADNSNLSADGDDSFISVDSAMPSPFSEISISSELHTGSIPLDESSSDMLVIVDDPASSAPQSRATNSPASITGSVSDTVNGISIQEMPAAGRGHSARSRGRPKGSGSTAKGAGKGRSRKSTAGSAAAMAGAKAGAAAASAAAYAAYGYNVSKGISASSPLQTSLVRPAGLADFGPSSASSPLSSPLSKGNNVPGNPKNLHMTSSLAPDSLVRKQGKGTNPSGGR
UniProt P58166: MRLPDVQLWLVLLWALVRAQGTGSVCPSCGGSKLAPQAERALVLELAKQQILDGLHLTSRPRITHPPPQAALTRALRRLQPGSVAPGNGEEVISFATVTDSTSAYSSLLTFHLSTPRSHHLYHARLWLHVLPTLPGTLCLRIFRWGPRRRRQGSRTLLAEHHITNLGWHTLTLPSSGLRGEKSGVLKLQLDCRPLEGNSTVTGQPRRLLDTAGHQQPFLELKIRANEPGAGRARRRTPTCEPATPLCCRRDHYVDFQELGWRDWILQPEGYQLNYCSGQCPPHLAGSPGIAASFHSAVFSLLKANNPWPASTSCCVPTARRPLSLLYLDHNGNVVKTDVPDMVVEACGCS
UniProt Q96D96: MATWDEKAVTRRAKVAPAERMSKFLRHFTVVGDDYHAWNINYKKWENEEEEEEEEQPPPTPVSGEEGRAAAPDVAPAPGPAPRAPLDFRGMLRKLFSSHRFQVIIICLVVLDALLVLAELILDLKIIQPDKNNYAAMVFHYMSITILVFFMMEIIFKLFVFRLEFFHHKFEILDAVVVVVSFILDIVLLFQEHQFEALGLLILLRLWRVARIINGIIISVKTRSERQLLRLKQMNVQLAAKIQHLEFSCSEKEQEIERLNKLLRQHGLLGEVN
UniProt Q8WYA0: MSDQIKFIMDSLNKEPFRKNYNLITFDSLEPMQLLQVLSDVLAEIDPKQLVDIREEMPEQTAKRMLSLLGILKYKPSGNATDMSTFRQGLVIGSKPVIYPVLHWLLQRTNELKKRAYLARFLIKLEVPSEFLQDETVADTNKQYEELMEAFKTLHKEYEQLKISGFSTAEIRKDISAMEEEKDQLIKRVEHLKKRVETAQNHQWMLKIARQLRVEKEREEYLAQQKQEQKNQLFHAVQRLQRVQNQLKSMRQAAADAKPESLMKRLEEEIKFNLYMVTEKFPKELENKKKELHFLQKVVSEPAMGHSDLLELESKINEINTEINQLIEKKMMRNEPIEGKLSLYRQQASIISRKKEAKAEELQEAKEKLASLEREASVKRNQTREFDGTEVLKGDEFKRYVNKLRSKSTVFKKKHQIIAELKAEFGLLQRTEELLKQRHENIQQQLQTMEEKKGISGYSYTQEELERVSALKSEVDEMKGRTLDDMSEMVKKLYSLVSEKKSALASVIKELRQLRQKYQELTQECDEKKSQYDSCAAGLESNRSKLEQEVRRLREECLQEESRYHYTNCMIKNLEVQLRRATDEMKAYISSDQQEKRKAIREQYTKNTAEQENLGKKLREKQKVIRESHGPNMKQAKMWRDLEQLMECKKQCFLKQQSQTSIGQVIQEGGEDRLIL
UniProt P78552: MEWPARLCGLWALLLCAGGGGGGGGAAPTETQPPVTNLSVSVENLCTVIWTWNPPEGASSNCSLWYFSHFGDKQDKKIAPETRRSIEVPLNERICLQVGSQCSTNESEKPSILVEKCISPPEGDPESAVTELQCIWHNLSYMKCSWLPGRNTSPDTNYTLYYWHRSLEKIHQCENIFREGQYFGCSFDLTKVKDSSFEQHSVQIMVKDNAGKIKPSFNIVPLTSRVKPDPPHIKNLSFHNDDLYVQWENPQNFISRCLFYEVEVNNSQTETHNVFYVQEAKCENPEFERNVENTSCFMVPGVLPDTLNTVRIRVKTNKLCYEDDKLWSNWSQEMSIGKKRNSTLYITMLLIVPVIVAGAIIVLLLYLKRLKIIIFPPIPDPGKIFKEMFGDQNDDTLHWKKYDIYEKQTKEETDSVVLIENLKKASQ
UniProt P50213: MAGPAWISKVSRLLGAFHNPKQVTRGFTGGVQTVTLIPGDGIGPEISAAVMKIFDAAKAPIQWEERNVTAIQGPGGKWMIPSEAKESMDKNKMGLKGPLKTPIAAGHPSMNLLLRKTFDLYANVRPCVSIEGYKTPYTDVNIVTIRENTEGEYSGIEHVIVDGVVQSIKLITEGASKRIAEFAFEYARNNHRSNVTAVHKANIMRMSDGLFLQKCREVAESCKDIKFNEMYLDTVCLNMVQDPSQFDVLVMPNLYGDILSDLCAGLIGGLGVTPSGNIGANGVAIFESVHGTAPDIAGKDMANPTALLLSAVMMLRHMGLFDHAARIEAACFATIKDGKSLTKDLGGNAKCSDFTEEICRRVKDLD
UniProt P83110, whole entry, looked up: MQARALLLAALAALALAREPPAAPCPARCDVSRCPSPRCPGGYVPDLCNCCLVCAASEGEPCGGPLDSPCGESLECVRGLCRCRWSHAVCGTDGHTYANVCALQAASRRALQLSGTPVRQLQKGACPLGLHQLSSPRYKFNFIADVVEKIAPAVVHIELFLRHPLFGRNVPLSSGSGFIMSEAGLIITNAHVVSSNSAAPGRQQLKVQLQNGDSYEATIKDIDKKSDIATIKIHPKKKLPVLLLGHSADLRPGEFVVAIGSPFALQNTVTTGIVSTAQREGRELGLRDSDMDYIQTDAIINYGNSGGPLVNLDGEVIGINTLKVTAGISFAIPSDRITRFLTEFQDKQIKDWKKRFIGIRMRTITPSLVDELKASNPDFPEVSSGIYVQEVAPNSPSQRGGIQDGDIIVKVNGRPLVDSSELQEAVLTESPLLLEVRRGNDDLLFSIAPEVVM
UniProt P01877, whole entry, looked up: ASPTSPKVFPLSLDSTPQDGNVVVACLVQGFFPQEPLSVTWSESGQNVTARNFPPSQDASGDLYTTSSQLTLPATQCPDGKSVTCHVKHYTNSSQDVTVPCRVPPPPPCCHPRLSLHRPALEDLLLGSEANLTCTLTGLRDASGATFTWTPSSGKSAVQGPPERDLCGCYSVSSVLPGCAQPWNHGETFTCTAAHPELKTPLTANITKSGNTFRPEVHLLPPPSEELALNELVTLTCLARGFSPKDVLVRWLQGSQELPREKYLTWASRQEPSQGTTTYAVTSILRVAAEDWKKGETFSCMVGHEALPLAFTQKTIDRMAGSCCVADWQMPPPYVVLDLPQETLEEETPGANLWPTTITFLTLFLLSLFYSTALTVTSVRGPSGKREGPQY
UniProt P15516: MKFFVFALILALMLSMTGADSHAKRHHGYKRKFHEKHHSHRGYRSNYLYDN
IGKV3D-7, A0A0C4DH55, UniProt A0A0C4DH55, whole entry, looked up: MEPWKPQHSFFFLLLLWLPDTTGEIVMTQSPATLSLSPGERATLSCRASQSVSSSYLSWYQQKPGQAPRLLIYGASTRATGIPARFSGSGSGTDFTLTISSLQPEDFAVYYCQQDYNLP
UniProt P17181: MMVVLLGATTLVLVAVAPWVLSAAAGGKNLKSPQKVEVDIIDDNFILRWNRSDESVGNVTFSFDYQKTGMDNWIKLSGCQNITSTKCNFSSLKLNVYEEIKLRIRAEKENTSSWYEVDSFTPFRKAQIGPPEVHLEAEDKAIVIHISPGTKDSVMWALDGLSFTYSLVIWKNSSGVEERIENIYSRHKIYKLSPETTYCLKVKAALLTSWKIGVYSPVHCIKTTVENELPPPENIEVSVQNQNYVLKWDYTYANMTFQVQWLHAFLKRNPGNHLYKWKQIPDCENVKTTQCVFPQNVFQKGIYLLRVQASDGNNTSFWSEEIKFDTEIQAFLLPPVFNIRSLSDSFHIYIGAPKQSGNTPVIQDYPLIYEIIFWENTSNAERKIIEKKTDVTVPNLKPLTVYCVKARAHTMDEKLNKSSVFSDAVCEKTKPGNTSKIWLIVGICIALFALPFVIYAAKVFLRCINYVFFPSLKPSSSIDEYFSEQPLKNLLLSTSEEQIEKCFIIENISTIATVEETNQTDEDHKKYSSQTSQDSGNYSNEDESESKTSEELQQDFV
UniProt P35475: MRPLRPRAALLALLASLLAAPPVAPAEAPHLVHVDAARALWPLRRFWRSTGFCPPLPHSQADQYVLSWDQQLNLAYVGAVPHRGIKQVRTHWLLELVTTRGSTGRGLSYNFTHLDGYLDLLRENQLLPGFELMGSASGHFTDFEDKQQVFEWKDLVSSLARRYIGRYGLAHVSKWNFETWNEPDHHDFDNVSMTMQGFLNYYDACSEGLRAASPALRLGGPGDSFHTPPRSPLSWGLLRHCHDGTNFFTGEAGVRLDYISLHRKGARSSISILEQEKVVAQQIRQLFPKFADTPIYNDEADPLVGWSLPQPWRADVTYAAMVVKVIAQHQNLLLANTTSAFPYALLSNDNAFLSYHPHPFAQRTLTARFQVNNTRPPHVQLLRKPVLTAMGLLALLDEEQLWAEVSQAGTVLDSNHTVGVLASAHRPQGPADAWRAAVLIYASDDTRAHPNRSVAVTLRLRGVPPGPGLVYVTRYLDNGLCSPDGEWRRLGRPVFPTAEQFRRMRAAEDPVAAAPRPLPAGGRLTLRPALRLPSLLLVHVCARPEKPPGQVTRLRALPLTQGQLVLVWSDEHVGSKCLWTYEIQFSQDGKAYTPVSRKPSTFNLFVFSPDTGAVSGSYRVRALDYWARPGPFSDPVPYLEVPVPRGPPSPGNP

Compound in the test: Cc1cccc(CC(=O)N2CCc3c2ccc(-c2cn(C)c4ncnc(N)c24)c3F)n1
As to the kind of experiment: log2 fold change, soluble protein after heating vs DMSO (PISA); higher = thermal stabilisation; K562 lysate, 10 uM; active = over 0.2 and 3.5 SD of the protein, either way, in both replicates (recomputed). The procedure, abridged: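 Values give the log-two fold change in thermal stability against solvent controls, from duplicates. Crude K562 extract at 1 mg/mL protein, made by dounce homogenisation in PBS pH 7.4 with 1 mM MgCl2, was treated with 10 μM compound for 30 min. After 3 min heating across 48°C-58°C, aliquots were pooled, adjusted to 0.5% NP-40 at 4°C and centrifuged at 21,000xg for 90 min. The supernatant was measured by TMTpro 16plex LC-MS/MS with channel sums equalised.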
HUWE1, A0A087X1S3: the log2 fold change was inactive: 0.107. For INPP5E (UniProt Q9NRR6) the value was inactive: 0.243; for IFT46 isoform 2 (UniProt Q9NQC8), inactive: 0.29. As for ICE1 (UniProt Q9Y2F5), the log2 fold change was inactive: 0.013.

In the case of IGLC3 (UniProt P0DOY3), the log2 fold change was inactive: 0.439. Under IMP4 (UniProt Q96G21) stands inactive: 0.078.

Consider INO80 (UniProt Q9ULG1), for which the log2 fold change was inactive: -0.084. For INHBE (UniProt P58166) the value was inactive: 0.072; for HVCN1 (UniProt Q96D96), inactive: 0.033; for HYOU1, A0A494C039, inactive: 0.125. With IFT81 (UniProt Q8WYA0), the log2 fold change is inactive: -0.046. For HSPH1 (UniProt Q5TBM3) the value was inactive: 0.16. For IL13RA1 (UniProt P78552) the value was inactive: 0.071; for IDH3A isoform 2 (UniProt P50213), inactive: 0.17.

For the target IGSF1 isoform 4 (UniProt Q8N6C5), the log2 fold change is inactive: 0.095. In the case of HTRA3 (UniProt P83110), the log2 fold change is inactive: 0.322. Under IMPDH2 (UniProt H0Y4R1) stands inactive: 0.065; under ILF3 (UniProt Q12906), inactive: -0.285; under IGHA2 (UniProt P01877), inactive: -0.133.

Take IL17RA (UniProt Q96F46): the log2 fold change was inactive: -0.074. For IGHG3 (UniProt P01860) the value was inactive: 0.171.

IGKV1D-33, A0A2Q2TTZ9: the log2 fold change was inactive: 0.41. For HTN3 (UniProt P15516) the value was inactive: 0.403.

Turning to HTD2 (UniProt P86397), the log2 fold change was inactive: -0.006. Under IGHV3-72, A0A4W8ZXM2 stands inactive: 0.409. With IFIH1 (UniProt Q9BYX4), the log2 fold change is inactive: 0.236.

IL6ST (UniProt P40189): the log2 fold change is inactive: -0.348. Under IGKV3-20 (UniProt P01619) stands inactive: 0.44; under IGKV3D-7, A0A0C4DH55, inactive: 0.459. For IFNAR1 (UniProt P17181) the value was inactive: -0.095. For IDUA (UniProt P35475), the log2 fold change was inactive: 0.056. Under ICAM4 (UniProt Q14773) stands inactive: 0.128. Regarding IGHM isoform 2 (UniProt P01871), the log2 fold change was inactive: 0.635.

The values are drawn from the supplement of paper PMC10849652.
